## Percent effect of library compounds

By UniProt entry, the sequences of proteins in these tests, tags left out.
UniProt P9WNZ1, whole entry: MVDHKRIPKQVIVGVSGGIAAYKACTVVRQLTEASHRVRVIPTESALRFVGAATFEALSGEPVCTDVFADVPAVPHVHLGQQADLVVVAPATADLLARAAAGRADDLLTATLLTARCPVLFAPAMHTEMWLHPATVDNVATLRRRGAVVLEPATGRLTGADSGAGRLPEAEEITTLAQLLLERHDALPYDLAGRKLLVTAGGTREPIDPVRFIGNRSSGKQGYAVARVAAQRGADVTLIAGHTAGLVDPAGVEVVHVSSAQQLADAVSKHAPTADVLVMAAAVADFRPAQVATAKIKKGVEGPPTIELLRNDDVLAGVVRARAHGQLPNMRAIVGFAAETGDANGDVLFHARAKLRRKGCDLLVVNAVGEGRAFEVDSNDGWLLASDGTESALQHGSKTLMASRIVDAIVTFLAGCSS
UniProt P9WFT3, whole entry: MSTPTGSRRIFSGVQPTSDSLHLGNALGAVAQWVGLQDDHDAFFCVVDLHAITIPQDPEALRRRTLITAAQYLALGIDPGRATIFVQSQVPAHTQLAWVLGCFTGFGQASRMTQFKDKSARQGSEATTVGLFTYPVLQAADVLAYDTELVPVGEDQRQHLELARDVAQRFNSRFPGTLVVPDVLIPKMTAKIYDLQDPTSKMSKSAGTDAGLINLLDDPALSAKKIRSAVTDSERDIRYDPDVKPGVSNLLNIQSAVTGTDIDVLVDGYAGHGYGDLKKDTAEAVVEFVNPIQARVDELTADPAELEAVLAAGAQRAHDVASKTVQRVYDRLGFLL
UniProt I6X8D2, whole entry: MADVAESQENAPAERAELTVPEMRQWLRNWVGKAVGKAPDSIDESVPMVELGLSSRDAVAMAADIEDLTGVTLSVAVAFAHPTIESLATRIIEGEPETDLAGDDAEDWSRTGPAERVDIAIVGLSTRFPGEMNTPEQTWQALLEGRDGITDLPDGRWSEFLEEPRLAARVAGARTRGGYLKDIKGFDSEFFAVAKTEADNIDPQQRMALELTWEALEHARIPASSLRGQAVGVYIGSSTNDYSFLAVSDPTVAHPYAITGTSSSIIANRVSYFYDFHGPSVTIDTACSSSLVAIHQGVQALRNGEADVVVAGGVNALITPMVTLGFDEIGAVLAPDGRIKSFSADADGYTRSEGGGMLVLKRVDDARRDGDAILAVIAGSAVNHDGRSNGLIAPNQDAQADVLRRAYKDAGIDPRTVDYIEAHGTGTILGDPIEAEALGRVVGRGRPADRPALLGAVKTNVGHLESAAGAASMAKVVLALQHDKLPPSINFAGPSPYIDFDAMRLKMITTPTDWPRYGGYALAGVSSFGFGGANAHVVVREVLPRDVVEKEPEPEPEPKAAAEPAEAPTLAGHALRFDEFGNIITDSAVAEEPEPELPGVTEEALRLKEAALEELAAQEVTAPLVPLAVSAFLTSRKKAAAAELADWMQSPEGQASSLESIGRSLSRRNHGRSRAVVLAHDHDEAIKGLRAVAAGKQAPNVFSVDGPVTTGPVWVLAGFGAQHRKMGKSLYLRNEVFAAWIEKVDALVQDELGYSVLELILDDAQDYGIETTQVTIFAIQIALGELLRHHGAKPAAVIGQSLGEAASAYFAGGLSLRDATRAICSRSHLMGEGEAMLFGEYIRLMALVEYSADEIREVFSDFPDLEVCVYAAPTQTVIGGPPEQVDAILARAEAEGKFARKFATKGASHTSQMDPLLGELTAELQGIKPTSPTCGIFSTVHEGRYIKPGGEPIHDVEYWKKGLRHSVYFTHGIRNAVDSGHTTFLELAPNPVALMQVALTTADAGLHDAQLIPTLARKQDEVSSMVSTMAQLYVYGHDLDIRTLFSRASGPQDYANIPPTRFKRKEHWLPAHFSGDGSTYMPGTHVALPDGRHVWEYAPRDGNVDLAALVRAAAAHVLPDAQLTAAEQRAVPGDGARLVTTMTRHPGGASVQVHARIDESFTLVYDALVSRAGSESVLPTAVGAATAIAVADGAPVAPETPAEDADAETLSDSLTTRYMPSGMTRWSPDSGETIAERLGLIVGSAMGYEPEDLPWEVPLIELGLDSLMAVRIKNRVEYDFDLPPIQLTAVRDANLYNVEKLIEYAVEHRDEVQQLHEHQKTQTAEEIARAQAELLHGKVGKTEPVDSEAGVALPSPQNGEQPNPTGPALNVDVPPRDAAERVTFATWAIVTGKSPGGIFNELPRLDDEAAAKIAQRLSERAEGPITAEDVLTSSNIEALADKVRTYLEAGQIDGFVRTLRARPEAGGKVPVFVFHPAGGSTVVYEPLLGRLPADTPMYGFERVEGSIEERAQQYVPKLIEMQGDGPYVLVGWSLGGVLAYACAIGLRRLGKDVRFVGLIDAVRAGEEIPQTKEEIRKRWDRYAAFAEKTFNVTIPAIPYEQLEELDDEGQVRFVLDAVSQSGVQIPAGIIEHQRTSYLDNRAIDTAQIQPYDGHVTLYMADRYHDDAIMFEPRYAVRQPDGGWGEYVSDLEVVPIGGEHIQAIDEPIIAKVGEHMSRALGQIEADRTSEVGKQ

Values are the deposited “Percent Effect”, in %.
The record does not define 0% and 100%; most values in the screen are far below 50% and negative numbers occur (in some assays of this library far below -100).
This is an unselected part of the compounds tested.
A dash means the value is not listed here; it may have been measured.

CoaBC: 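Coenzyme A biosynthesis protein CoaBC, Mycobacterium tuberculosis (UniProt P9WNZ1). Enzyme assay of CoaBC with a phosphate dye (Biomol Green) read at 650 nm. Concentration: 30 µM. Higher reads as stronger inhibition, judged from the few compounds that gave an IC50. Most strong results did not repeat in a second test. Of about 67,000 compounds tested this way, about 40 (0.06%) reached 50% or more in at least one test.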
MtTrpRS: 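Tryptophan-tRNA ligase, Mycobacterium tuberculosis (UniProt P9WFT3). Enzyme assay of tryptophanyl-tRNA synthetase; the read-out is not stated. Tested at 10 µM. Direction is not recorded; retested compounds ran higher, which suggests that high means inhibition. About 65,000 compounds were tested under these conditions; 0.098% (about 64) showed 50% or more at least once.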
Pks13 thioesterase: 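Enzyme assay of the thioesterase domain of polyketide synthase 13; the read-out is not stated. Target: Polyketide synthase Pks13, Mycobacterium tuberculosis (UniProt I6X8D2). Compounds at 30 µM. The record gives no direction; the compounds picked for IC50 retests had high values, so higher reads as stronger inhibition. About 67,000 compounds were tested under these conditions; 0.46% (about 300) showed 50% or more at least once.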

Compound,CoaBC,MtTrpRS,Pks13 thioesterase
COc1ccccc1NC(=O)NCC(O)c1ccc(F)cc1F (configuration not stated),-3.851,18.5,-28.87
Cc1cc(NC(=O)CN2CCn3c(nnc3-c3ccccc3)C2)no1,0.6479,-4.15,-5.443
COc1ccc(-c2nc3c([nH]2)CCNC3)c(OC)c1OC,-15.49,-1.769,2.914
O=C(CC1COCCN1)N1CCC2(CCc3ccccc32)CC1 (configuration not stated),-2.982,2.592,-18.19
O=C(NCCn1ccnc1-c1cc2n(n1)CCNC2)c1ccncc1,-0.2433,3.994,-9.892
CCC(C)c1noc(C2CCN(C(=O)c3ccccn3)CC2)n1 (configuration not stated),-16.42,2.581,-0.9891
CCn1cc(S(=O)(=O)N2CCCC3(CC=CNC3=O)C2)cn1 (configuration not stated),10.21,-8.22,8.333
Cc1cc(F)c2c(c1)CCCN2C(=O)c1cncc(Br)c1,-3.931,-3.974,-9.688
CN(c1ccncn1)C1CC2(CCN(C(=O)Cc3cccs3)C2)C1 (configuration not stated),3.398,-,9.565
OCC1(O)CCCN(Cc2nnc(-c3ccccc3)o2)CC1 (configuration not stated),4.198,-5.325,-37.06
Cc1nnc(N2CC[C@H]3O[C@H](C(=O)NCc4ccccn4)CC[C@H]32)s1,3.361,0.3487,-17.9
O=S1(=O)CCCN(Cc2ccccc2OCC(F)(F)F)CC1,-0.7968,-2.961,-0.8927
O=C(c1ccnnc1)N1CCC2(CC1)CC(N1CCOCC1)C2,-3.628,-3.893,-6.078
O=C1CCC2(CCCN(Cc3nccs3)C2)N1CC1CC1 (configuration not stated),2.349,9.174,-29.8
COC(=O)C(NC(=O)Nc1ccc(C(C)=O)cc1)C(C)C (configuration not stated),0.9685,3.858,-5.428
CN(Cc1ccoc1)C(=O)C1CC(=O)N(Cc2ccncc2)C1 (configuration not stated),6.438,-1.495,-
O=C(COc1coc(CN2CCSCC2)cc1=O)c1ccccc1,2.025,0.6135,-0.904
O=C(Cc1cccs1)N1CC(c2nc(-c3cnccn3)no2)C1,0.2114,1.444,-15.52
CC(C)COc1cncc(N2CCCC(CC(N)=O)C2)n1 (configuration not stated),1.942,2.877,1.176
OCC(O)CSCc1ccc(Cl)cc1Cl (configuration not stated),-1.932,-0.7273,2.811
O=C(CCn1cccn1)NS(=O)(=O)N1CCCc2ccccc21,5.305,-3.631,6.305
CN(Cc1nnc(C2CC2)o1)CC1CCCN1c1cccnn1 (configuration not stated),4.842,0.6595,1.972
COc1ncc(NCc2csc(-c3ccco3)n2)cc1C(N)=O,3.733,-9.855,9.704
Cc1ccc(C(=O)Nc2c(C(=O)N(C)C)nn(C)c2C)cc1,-0.4619,0.7772,-1.55
COc1ccc(-c2noc([C@@H](C)NS(=O)(=O)CC(C)C)c2C(=O)O)cc1,0.2208,-1.442,-21.88
CNc1cc(CCNC(=O)c2cccnc2)nc(-c2ccncc2)n1,-0.2778,4.599,-32.66
COc1cc2c(cc1CNC(=O)Cc1cc(C)[nH]n1)OC(C)C2 (configuration not stated),5.058,1.33,4.05
CN(C)C1(CNC(=O)C2CCCN2Cc2ccc(F)cc2)CCOCC1 (configuration not stated),-2.947,2.386,-
Cc1ccc2nc(C3CCCN3Cc3scnc3C)[nH]c2c1 (configuration not stated),3.342,-6.386,-46.97
O=C(Cc1cccs1)N1CC[C@H]2[C@@H]1CCC(=O)N2c1cccnc1,2.418,1.45,6.209
CCc1csc(CNc2nc3c(s2)c(C)nn3C)n1,15.42,1.784,-3.287
COc1cccc(OC)c1CC(=O)NC(C#N)c1ccsc1 (configuration not stated),1.402,1.117,-15.31
CN(C)CCNC(=O)c1ccc2ccc(N(C)CC3CC3)n2c1,9.176,-2.653,-11.51
CN(Cc1nc2ccccc2c(=O)[nH]1)C1CC(=O)N(C2CC2)C1=O (configuration not stated),-2.39,-7.545,5.256
O=C1CC(NS(=O)(=O)c2cccc(F)c2)CN1 (configuration not stated),1.083,2.348,-4.62
CCc1cc(N(C)Cc2ccno2)n2nc(C)c(C)c2n1,8.009,2.415,3.932
Cc1cccc(S(=O)(=O)NC(=O)CCc2cscn2)c1,0.5741,4.875,-4.05
CCCc1nnc2sc(-c3cc(C(C)C)n[nH]3)nn12,-3.874,0.06324,-11.45
CC(C)Cc1nc(CN2CCOC(Cn3cccn3)C2)no1 (configuration not stated),-3.409,7.787,-22.27
O=C(NCCc1ccccn1)C1CC(=O)N(CC(F)(F)F)C1 (configuration not stated),8.033,0.1412,-7.584
COc1ccccc1CCN(C)C(C)c1nc(-c2cccnc2)no1 (configuration not stated),6.242,16.87,18.43
NC(=O)C1CCCN(C(=O)c2cnc3c(cnn3C3CCCC3)c2)C1 (configuration not stated),-1.799,-1.495,-34.36
Cc1oc(-c2ccco2)nc1CN1CCc2cncnc2C1,9.709,-0.4542,3.467
Cc1ccc(CN2CCc3nc(C(C)C)nc(O)c3CC2)s1,7.126,-6.454,-12.6
CCC(=O)N1Cc2nccn2CC(CN(C)Cc2cccnc2)C1 (configuration not stated),-6.477,-1.586,-17.61
CC(C)(C)c1ncc(C(=O)NCCNC(=O)c2cccs2)s1,-9.068,10.79,-22.58
OC1(CN2CCCC2)CCCN(Cc2cnc(-c3ccco3)nc2)C1 (configuration not stated),-2.317,0,-9.33
COc1ccccc1OC1CN(C(=O)C2CNCC(=O)N2)C1 (configuration not stated),-,0.2064,-36.04
Cc1cnc(C2CCCN(C(=O)c3c[nH]c(=O)[nH]c3=O)C2)s1 (configuration not stated),0.2427,-,-0.8795
C[S+]([O-])c1nncn1CC(=O)c1ccc(OC(F)F)cc1 (configuration not stated),-5.579,0.2639,-30.85
CC(=O)NCC(=O)N1C[C@@H]2CC[C@H](Oc3ccccc3Cl)[C@@H]2C1,-1.453,-,-27.95
CN(C)c1cccc(C(=O)N2CCc3ccc(=O)[nH]c3CC2)c1,2.764,1.283,-30.56
CCn1nc(CC(C)C)cc1C(=O)N1CCC(n2cnnc2)CC1,9.879,4.238,-17.11
COC(C)(C)CNC(=O)C1CCC(=O)N(C2CCCC2)C1 (configuration not stated),-7.46,-7.669,3.675
CN(C)C(=O)CN1C(=O)[C@H]2CC[C@@H]1CN(Cc1ccccc1C#N)C2,4.946,1.377,-9.221
Cc1nccn1C1CCCN(C(=O)c2sccc2-n2cnnn2)C1 (configuration not stated),0.7895,-2.54,-18.97
Cc1oc(-c2nc(C#N)c(N(C)C)o2)cc1S(=O)(=O)N1CCCC1,4.441,-9.447,-21.9
COCC1CC2(CCN(C(=O)c3oc4ccccc4c3C)CC2)CO1 (configuration not stated),3.268,-5.088,5.855
CCn1nc(C)cc1C(=O)N1C[C@@H]2C[C@@H](c3nnc(C)[nH]3)O[C@@H]2C1,-0.1212,-,-31.52
CN1CCOC(CNCc2cnc(C(C)(C)C)s2)C1 (configuration not stated),-1.488,2.643,-4.443
O=C(CCNC(=O)C1=Cc2ccccc2OC1)Nc1cccnc1,-1.595,-0.4854,-19.68
c1ccc(CCN2CCCC2c2ccnc(Nc3ncccn3)n2)cc1 (configuration not stated),16.55,3.825,-1.207
O=C1CCC2(CCCN(CCc3ccccc3)C2)N1Cc1cccnc1 (configuration not stated),0.7255,-2.214,0.6209

Repeated from the top, 5 entries:

For COc1ccccc1NC(=O)NCC(O)c1ccc(F)cc1F (configuration not stated) the result was CoaBC: -3.851%; MtTrpRS: 18.5%; Pks13 thioesterase: -28.87%.
For Cc1cc(NC(=O)CN2CCn3c(nnc3-c3ccccc3)C2)no1 the result was CoaBC: 0.6479%; MtTrpRS: -4.15%; Pks13 thioesterase: -5.443%.
For COc1ccc(-c2nc3c([nH]2)CCNC3)c(OC)c1OC the result was CoaBC: -15.49%; MtTrpRS: -1.769%; Pks13 thioesterase: 2.914%.
For O=C(CC1COCCN1)N1CCC2(CCc3ccccc32)CC1 (configuration not stated) the result was CoaBC: -2.982%; MtTrpRS: 2.592%; Pks13 thioesterase: -18.19%.
For O=C(NCCn1ccnc1-c1cc2n(n1)CCNC2)c1ccncc1 the result was CoaBC: -0.2433%; MtTrpRS: 3.994%; Pks13 thioesterase: -9.892%.

Measurements from “University of Dundee, Small-Polar-MMV Screening Library” (2021), ChEMBL document CHEMBL3988442.